Values from PubChem BioAssay AID1259424 (University of Nebraska Medical Center, 2018)
The whole screen tested about 14,000 reagents; this is a random part of them. 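Higher correlation or smaller distance means closer resemblance to KSR1 loss; control wells, including KSR1 knockdowns, recur on many plates.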 Further read-outs or replicates are left out here. Not given: the time to read-out.

- Screen: 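Find knockdowns that reproduce the expression shifts seen after KSR1 loss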 (primary screen)
- Cell system: human HCT116 colon cancer cells
- Knock-down reagent: siRNA pool against human genes, 50 nM
- Read-out: 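Log2 levels of six mRNAs (branched-DNA multiplex), adjusted by two reference genes and the non-targeting median, then scored against the average KSR1 knockdown pattern as Pearson r and euclidean distance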
- Reading the numbers: mean correlation with KSR1 profile and KSR1 correlation: higher = expression change more like KSR1 knockdown; mean distance from KSR1 profile: higher = expression change less like KSR1 knockdown

gene symbol	mean correlation with KSR1 profile	mean distance from KSR1 profile	KSR1 correlation, replicate 1
ETS1 (ETS proto-oncogene 1, transcription factor)	0.76	1.81	0.481
ZNF91 (zinc finger protein 91)	-0.508	2.57	-0.459
RTL6 (retrotransposon Gag like 6)	0.963	1.56	0.907
MT2A (metallothionein 2A)	0.605	2.8	0.444
ATN1 (atrophin 1)	0.446	1.56	0.392
IL12RB1 (interleukin 12 receptor subunit beta 1)	0.24	1.98	-0.0082
PRG3 (proteoglycan 3, pro eosinophil major basic protein 2)	0.322	1.23	-0.145
SCMH1 (Scm polycomb group protein homolog 1)	0.284	1.53	0.193
MRGPRX3 (MAS related GPR family member X3)	0.759	1.87	0.8
FOXE3 (forkhead box E3)	0.36	1.87	0.273
LMOD1 (leiomodin 1)	0.753	2.24	0.736
C2CD3 (C2 domain containing 3 centriole elongation regulator)	0.582	1.56	0.506
NFIA (nuclear factor I A)	-0.00622	3.08	0.0861
TAF9B (TATA-box binding protein associated factor 9b)	0.653	0.888	0.592
UROD (uroporphyrinogen decarboxylase)	-0.767	1.64	-0.635
CASKIN1 (CASK interacting protein 1)	0.403	1.24	0.442
UBR1 (ubiquitin protein ligase E3 component n-recognin 1)	0.139	1.74	-0.0875
PRY (PTPN13 like Y-linked)	-0.308	4.11	-0.411
MAN2A1 (mannosidase alpha class 2A member 1)	0.176	2.74	0.142
RREB1 (ras responsive element binding protein 1)	0.0584	1.64	0.337
